Laboratory results published in patent US20250268856A1, “Pain Relieving Method” (Animal Ethics Pty Ltd, priority 2019, published 2025).

Details: in vivo

CCN(CC)CC(=O)Nc1c(C)cccc1C [lidocaine/lignocaine, lidocaine]
Plasma levels (in the range considered therapeutic): 1000 to 5000 ng/mL
